In paper PMC8495200:
Results are given in words; binding and its absence hold for the method and conditions named. In cells and extracts the contact can be indirect. A yes stands for co-enrichment or nearness to the bait. Other partners may have been found.

Sequences of proteins named here, by UniProt entry; tags and fusion partners are left off. A change or cut given only in a name is not applied to a line headed by its entry.
UniProt Q54X06: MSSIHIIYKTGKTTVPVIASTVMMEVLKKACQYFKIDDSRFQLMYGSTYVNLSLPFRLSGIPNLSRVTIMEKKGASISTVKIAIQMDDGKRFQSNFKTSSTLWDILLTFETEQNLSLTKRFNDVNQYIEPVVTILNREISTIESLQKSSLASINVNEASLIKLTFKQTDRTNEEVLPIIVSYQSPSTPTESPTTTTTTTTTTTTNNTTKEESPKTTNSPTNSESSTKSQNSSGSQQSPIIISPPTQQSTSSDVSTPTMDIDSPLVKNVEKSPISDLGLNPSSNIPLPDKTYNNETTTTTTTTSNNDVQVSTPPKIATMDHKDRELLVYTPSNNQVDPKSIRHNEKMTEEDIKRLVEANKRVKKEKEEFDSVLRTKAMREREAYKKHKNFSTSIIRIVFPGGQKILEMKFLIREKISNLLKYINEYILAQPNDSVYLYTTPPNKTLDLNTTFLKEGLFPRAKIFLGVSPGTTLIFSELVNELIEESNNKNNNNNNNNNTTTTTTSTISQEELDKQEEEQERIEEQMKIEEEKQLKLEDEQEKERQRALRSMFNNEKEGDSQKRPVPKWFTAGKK

Key:
[1] = target: GFP-UBXD9 (N-terminally tagged UBXD9) (D. discoideum); test: affinity purification with mass spectrometry; GFP-trap beads, soluble proteins of AX2 cells expressing UBXD9-GFP or GFP-UBXD9 against AX2/GFP; four replicates, fold change > 1.4 and p < 0.05
[2] = target: UBXD9-GFP (C-terminally tagged UBXD9) (D. discoideum) (UniProt Q54X06); test: as above
[3] = target: BirA-UBXD9 (D. discoideum) (UniProt Q54X06); test: proximity labelling; BioID: AX2/BirA-UBXD9 cells with 50 uM biotin for 16 h against AX2, streptavidin sepharose beads, mass spectrometry; four replicates, fold change > 1.4 and p < 0.05

Measured: binding

B1: Putative glutamine synthetase type III (enzyme, UniProt Q54WR9 1-735)
chain: MSNRRREFIEYIDSREPVEADIDISDKADRLTDIYDSDTYGLNAMRETLPSHCYKKIREVMQTGSALDPEIADMVANGMKEWAIKQGATHYCHWFLPLNGLAAEKHDSFISIFPGDDKVLLEFSGMQLIKGEPDASSFPSGGIRSTWEARGYTVWDATSPAFIRREKNGAILCIPTAFCSWTGEALDQKTPLLRSMEYVSNESIITLSSLFNEKHKRISPTLGIEQEFFLIDRKFYLARPDLVNCGRTLIGAKPPKGQEMEDHYFGTMNSRIISCIQEVEWKMWRLGMPLKTRHNEVAPGQYEVAPIFERANIAADHNMMLMDILKNVSTKHGLVCLFHEKPFAGVNGSGKHNNWSLSTDGGSNLLEPGHTPSQNARFILFLTAIIRAVDIHADLLRASVAVPGNEHRLGANEAPPAIISIYLGKELDTVINNIINNTDIQAPGSDDMDLGVVGFPPLPKDSTDRNRTSPFAFTGNKFEFRAVGSSQVVNFPCIVLNTIVAESLRFIREEILREMKVSSRQTAFNKIIKDTLIQHVRVVFNGDGYSGDWKELAKSRGLANLPSTPEALTNINSEKNIKLFSESNILSPVELESRQEILFEIYNKSIKIEANSLYDLVSTLVLPACFAHQKNIAESVNSIMPFIQSQKSFSQPNHQYSHLSEVVESVNLLIEANQKLLALIKQTKDFNSEHSLATFLNQSVIPQMNEVRKFSDHLEGIVEDKSWPVPKYSEILFLR
binds: all assays above
